Among all 580,000 compounds or so, about 6,100 (1.1%) were called active. The shares of active, inactive and inconclusive entries below differ from those in the screen. The call rests on the fitted dose curve; in most records, active means well fitted inhibition curve with a large enough effect; inconclusive means small, poorly fitted or top-dose-only effect, or another doubt; inactive means no such curve, though single readings can be large or run the other way. Potencies beside an inconclusive call are fits to weak or partial responses and may not hold up.
The compounds below were run against Polyunsaturated fatty acid lipoxygenase ALOX12 (Homo sapiens) (UniProt P18054) (assay: Primary qHTS assay for inhibitors of human arachidonate 12S-lipoxygenase (ALOX12): Round 2). Conditions: purified 12hLO, xylenol orange hydroperoxide absorbance; series mostly up to 108 µM.
Procedure, shortened: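 Hydroperoxide product was detected by ferrous iron/xylenol orange as the 573 to 405 nm absorbance ratio. Arachidonic acid at 40 uM (final) was turned over for 30 min at room temperature by 150 nM human 12hLO, pH 7.0 Hepes buffer, after 15 min compound preincubation.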
Potency means the concentration at half of the fitted maximal effect.

Chains of the proteins cited; added tags and fusions are not shown.
UniProt P18054, whole entry, looked up: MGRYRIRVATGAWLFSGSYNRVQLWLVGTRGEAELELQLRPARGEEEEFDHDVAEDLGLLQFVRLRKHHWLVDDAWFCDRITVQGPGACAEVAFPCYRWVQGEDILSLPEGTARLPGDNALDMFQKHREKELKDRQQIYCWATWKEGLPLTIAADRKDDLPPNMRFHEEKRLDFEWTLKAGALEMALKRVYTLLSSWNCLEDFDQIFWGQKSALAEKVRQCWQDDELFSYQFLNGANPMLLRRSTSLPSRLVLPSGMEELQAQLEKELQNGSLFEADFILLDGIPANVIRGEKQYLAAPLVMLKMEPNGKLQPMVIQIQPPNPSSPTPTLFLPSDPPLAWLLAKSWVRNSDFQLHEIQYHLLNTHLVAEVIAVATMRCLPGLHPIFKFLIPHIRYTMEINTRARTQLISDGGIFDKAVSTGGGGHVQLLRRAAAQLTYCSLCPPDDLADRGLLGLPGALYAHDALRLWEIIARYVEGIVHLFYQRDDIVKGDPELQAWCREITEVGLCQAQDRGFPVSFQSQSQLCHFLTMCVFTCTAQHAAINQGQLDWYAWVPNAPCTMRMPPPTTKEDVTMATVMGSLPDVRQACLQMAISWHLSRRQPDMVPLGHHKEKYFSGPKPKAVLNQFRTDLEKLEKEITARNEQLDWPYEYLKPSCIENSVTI

Row | SMILES | Potency
1 | O=S(=O)(c1ccc(=S)[nH]c1)N1CCN(Cc2ccccc2)CC1 | active: 39.8 µM
2 | CCCSc1nc2c(c(=O)n(C)c(=O)n2C)n1C/C=C/c1ccccc1 | inactive
3 | CCC(CC)C1C(C#N)=C(N)Oc2n[nH]c(-c3ccccc3)c21 (stereo not given) | inactive
4 | Cc1cc(C)c2c(=O)[nH]c(SCc3ccccc3)nc2n1 | inconclusive: 56.2 µM [inhibitor, partial curve, poor fit]
5 | Cc1ccc(C2Cn3nnc(C(=O)N4CCC(C(=O)NCCC5=CCCCC5)CC4)c3CO2)cc1 (stereo not given) | inactive
6 | Cn1c(=O)[nH]c(NC2CCCCC2)c(N=O)c1=O | inconclusive: 44.7 µM [inhibitor, partial curve, poor fit]
7 | O=C1/C(=C/c2ccsc2)CCc2ccccc21 | inconclusive: 50.1 µM [inhibitor, partial curve, poor fit]
8 | Cc1ccc(OCC(=O)Oc2ccccc2[N+](=O)[O-])cc1 | inconclusive: 112 µM [inhibitor, partial curve, poor fit]
9 | CC1CCCC(C)N1C(=O)Cn1cc(C#N)c2ccccc21 (stereo not given) | inconclusive: 31.6 µM [inhibitor, partial curve, poor fit]
10 | Cc1ccc(-c2nc3cc(NC(=O)c4cc(Br)ccc4Cl)ccc3o2)cc1 | active: 39.8 µM
11 | O=C(CCc1cc2n(n1)CCCNC2)NCc1csc2c1CCCC2 | inconclusive: 6.31 µM [inhibitor, full curve]
12 | O=C(O)c1ccnc2ccccc12 | inconclusive: 0.355 µM [inhibitor, full curve, poor fit]
13 | O=C(Nc1ccc2c(c1)OCCCO2)C(Sc1ccccc1)c1ccccc1 (stereo not given) | inactive
14 | CSc1nc(Nc2cccc(F)c2)c(C#N)c(-c2ccccc2)n1 | inconclusive: 39.8 µM [inhibitor, partial curve, poor fit]
15 | COc1ccc(CCNC(=O)/C=C/c2ccco2)cc1 | inactive
16 | CC(C)(C)OC(=O)NCCCCC1=CC2=CC(=O)C(C)(O)C(=O)C2=CO1 (stereo not given) | inconclusive: 35.5 µM [inhibitor, partial curve, poor fit]
17 | Cc1ccc(CN2C(=O)C(F)(F)Oc3ccc(C)cc32)cc1 | inactive
18 | COC(=O)[C@H](Cc1ccccc1)N(C)S(=O)(=O)c1cccc(S(=O)(=O)N(C)[C@@H](Cc2ccccc2)C(=O)OC)c1 | inactive
19 | COc1ccc(N2CCN(Cc3nc(-c4ccc(C)cc4)no3)CC2)cc1 | inactive
20 | COc1ccc(-n2c(=O)c3c4c(sc3n3cnnc23)CC(C)CC4)cc1 (stereo not given) | inactive
21 | CCCCOC(=O)Nc1ccc(N2CCOCC2)cc1 | inconclusive: 44.7 µM [inhibitor, partial curve, poor fit]
22 | COCC(=O)N1CC(=O)N2[C@@H](CO)[C@H](c3ccc(Br)cc3)[C@@H]2C1 | inconclusive: 126 µM [inhibitor, single point]
23 | COC(=O)Cn1c(Cc2ccccc2)nc2ccccc21 | inactive

Row | SMILES | Potency
24 | COCCNC(=O)c1ccc(OC2CCN(C(C)CCSC)CC2)c(Cl)c1 (stereo not given) | inactive
25 | CSc1ncc(Cl)c(C(=O)NCc2cccnc2)n1 | inconclusive: 112 µM [inhibitor, single point]
26 | N#Cc1cc2c(nc1SCC(=O)N1CCCCC1)CCCCC2 | inconclusive: 141 µM [inhibitor, partial curve, poor fit]
27 | CCOC(=O)c1ccc(NC(=O)c2ccc(-c3cccc(Cl)c3C)o2)cc1 | inactive
28 | COc1ccc(C2c3c(-c4ccc(F)cc4)n[nH]c3C(=O)N2c2ccccc2)cc1OC (stereo not given) | inconclusive: 20 µM [inhibitor, partial curve]
29 | Cc1ccc(-c2noc(COc3ccccc3C)n2)cc1 | inactive
30 | O=C1[C@H]2[C@@H](C(=O)N1c1cccc3ccccc13)C1(C(=O)c3ccccc3C1=O)N1CCC[C@@H]21 | inactive
31 | COc1cc2c(c(OC)c1OC)-c1ccc(SC)c(=O)cc1C(NC(=O)C(F)(F)F)CC2 (stereo not given) | inconclusive: 70.8 µM [inhibitor, partial curve, poor fit]
32 | Nc1nonc1-n1nnc(C(=O)N/N=C/c2ccco2)c1-c1ccccc1 | inactive
33 | COc1ccc(/C(N)=N/OC(=O)CC2CCCCC2)cc1OC | inconclusive: 100 µM [inhibitor, single point]
34 | S=C(NCc1ccco1)Nc1ccc(Br)cc1Cl | inconclusive: 50.1 µM [inhibitor, partial curve, poor fit]
35 | COc1ccc(OC)c(S(=O)(=O)N/N=C\c2c[nH]c3ccccc23)c1 | inactive
36 | Brc1cccc(CNCCCN2CCOCC2)c1 | inactive
37 | CC(=O)Nc1ccc(S(=O)(=O)N[C@@H](C)C(=O)OCC(=O)c2ccc(Br)s2)cc1 | inconclusive: 100 µM [inhibitor, single point]
38 | COc1ccc(-c2sc3ccc(N4CCOCC4)cc3c2C#CCCO)cc1 | inconclusive: 79.4 µM [inhibitor, partial curve, poor fit]
39 | O=C(C1CCN(Cc2ccc(Cl)cc2)CC1)N1CCN(Cc2ccc3c(c2)OCO3)CC1 | inconclusive: 5.62 µM [inhibitor, full curve, poor fit]
40 | O=c1c2oc3ccccc3c2ncn1Cc1ccc(Br)cc1 | inconclusive: 126 µM [inhibitor, single point]
41 | O=C(NN1C(=O)/C(=C/c2ccc(O)c([N+](=O)[O-])c2)SC1=S)c1ccccc1Cl | inconclusive: 39.8 µM [inhibitor, partial curve]
42 | CC(C(=O)Nc1ccccc1C#N)N1C(=O)NC2(CCCCCC2)C1=O (stereo not given) | inconclusive: 44.7 µM [inhibitor, partial curve, poor fit]
43 | CCOc1ccc(NC(=O)CSC2=C(C#N)C(c3ccc(Cl)cc3)C3=C(CCCC3=O)N2)cc1 (stereo not given) | inconclusive: 5.01 µM [inhibitor, full curve, poor fit]
44 | C=C(C)C(=O)Nc1cccc(C2=NOC3(C2)C[C@H](C(N)=O)N(C(=O)/C=C/C)C3)c1 (stereo not given in full) | inactive
45 | CN=c1scc(-c2cccs2)n1/N=C/c1ccc(O)c(O)c1O | inconclusive: 28.2 µM [inhibitor, partial curve]

Ordered by molecular weight (rising): three of the compounds above
Row | SMILES | Potency
35 | COc1ccc(OC)c(S(=O)(=O)N/N=C\c2c[nH]c3ccccc23)c1 | inactive
32 | Nc1nonc1-n1nnc(C(=O)N/N=C/c2ccco2)c1-c1ccccc1 | inactive
43 | CCOc1ccc(NC(=O)CSC2=C(C#N)C(c3ccc(Cl)cc3)C3=C(CCCC3=O)N2)cc1 (stereo not given) | inconclusive: 5.01 µM [inhibitor, full curve, poor fit]
